The list shows a part of the results.
Compound: c1cn2cc(-c3ccc4cn[nH]c4c3)nc(Nc3ccc(N4CCOCC4)cc3)c2n1 [entospletinib]
Assay: log2 fold change, soluble protein after heating vs DMSO (PISA); higher = thermal stabilisation; K562 cells, 10 uM, 30 min; active = over 0.2 and 3.5 SD of the protein, either way, in both replicates (recomputed)
Procedure, shortened: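 Thermal stability values are relative to control samples and come from duplicates. They are expressed as log2 fold changes. For measurement, K562 cells (2×10^6 cells/mL) received 10 μM compound for 30 min, and aliquots were heated for 3 min over 48°C-58°C, pooled, and extracted at 4°C in PBS with 0.5% NP-40. Soluble protein, the supernatant after 21,000xg for 90 min, was quantified by TMTpro 16plex LC-MS/MS with equalised channel sums.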

Protein sequences, listed by entry. Tags and fused reporters are not part of them. Lines headed by an entry give the natural chain unless they say otherwise; changes in a name come on top.
UniProt Q96F63: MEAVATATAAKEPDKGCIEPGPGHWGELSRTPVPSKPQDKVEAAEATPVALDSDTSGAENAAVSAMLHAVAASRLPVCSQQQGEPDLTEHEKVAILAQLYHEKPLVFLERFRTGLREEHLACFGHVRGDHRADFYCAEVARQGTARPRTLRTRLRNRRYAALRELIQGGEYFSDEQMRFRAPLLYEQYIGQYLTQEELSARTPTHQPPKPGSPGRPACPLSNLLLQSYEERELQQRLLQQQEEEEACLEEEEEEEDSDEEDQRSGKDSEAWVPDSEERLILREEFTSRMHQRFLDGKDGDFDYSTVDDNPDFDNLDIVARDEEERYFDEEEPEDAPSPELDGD
UniProt Q13042, whole entry, looked up: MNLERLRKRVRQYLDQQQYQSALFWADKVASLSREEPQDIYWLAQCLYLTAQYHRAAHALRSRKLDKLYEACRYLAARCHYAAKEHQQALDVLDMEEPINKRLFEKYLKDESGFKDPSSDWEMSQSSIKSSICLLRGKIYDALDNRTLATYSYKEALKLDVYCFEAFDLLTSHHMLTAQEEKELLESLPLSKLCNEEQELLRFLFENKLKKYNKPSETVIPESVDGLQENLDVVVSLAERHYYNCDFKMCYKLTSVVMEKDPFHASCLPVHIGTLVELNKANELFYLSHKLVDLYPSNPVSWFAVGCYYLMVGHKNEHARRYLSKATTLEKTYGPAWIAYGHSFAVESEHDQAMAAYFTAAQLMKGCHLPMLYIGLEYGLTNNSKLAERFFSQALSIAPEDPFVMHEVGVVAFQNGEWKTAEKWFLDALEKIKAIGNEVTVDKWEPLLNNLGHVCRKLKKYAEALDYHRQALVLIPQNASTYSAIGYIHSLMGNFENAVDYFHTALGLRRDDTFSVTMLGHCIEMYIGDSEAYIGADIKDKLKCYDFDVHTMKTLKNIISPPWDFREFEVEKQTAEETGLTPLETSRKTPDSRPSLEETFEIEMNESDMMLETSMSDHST
UniProt Q9HA77: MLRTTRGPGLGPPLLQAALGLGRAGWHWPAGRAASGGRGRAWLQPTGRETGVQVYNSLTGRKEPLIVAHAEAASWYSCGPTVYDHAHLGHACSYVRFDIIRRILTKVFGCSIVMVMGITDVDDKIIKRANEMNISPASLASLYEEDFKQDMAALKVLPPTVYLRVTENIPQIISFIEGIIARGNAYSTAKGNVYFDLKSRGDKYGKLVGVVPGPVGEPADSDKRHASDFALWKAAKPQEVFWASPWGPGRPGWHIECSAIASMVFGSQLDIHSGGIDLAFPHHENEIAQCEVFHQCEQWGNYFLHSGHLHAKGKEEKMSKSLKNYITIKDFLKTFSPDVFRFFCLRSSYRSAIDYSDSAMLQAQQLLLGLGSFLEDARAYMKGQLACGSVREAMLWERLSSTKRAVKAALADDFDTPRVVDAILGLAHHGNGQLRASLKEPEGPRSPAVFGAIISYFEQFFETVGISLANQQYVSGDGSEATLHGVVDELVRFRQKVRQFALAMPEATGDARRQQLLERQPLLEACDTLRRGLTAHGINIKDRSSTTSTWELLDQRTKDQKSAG
UniProt Q8IWP9: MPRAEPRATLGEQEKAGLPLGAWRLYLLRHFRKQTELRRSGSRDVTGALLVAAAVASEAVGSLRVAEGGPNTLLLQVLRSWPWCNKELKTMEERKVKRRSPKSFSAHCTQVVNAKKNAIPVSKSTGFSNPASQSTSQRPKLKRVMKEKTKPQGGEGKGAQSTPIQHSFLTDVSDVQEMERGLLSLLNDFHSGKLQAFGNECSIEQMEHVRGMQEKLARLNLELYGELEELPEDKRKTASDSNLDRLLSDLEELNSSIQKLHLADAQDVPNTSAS
UniProt Q9H6F5: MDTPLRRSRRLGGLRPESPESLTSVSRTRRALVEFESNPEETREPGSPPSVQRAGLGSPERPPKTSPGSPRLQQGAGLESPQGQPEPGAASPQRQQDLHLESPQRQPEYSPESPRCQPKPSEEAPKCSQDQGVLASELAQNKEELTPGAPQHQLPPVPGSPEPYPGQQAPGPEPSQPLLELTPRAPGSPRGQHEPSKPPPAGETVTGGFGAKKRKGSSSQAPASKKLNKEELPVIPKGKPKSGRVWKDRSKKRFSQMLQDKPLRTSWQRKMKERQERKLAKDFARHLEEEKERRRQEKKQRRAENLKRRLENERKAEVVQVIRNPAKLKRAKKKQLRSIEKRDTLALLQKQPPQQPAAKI
UniProt O15234, whole entry, looked up: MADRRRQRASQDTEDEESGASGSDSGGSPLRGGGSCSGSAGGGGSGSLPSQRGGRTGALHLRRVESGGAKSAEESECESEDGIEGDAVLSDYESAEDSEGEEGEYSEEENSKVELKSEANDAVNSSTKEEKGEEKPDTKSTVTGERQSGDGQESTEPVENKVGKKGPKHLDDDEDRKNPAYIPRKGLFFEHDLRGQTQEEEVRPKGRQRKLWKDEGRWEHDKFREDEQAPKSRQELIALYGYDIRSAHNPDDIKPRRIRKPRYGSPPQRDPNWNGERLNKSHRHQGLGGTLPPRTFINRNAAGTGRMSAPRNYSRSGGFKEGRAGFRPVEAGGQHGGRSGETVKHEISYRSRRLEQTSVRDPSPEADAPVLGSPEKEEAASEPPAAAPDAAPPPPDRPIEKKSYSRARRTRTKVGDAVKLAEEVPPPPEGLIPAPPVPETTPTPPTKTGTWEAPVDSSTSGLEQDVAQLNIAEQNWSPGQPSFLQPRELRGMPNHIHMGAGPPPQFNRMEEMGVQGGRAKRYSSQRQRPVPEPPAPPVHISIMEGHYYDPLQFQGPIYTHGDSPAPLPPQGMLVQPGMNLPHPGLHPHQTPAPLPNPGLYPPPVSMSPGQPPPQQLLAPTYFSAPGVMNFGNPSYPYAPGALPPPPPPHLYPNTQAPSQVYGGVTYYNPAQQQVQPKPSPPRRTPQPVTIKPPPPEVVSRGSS
UniProt O75081: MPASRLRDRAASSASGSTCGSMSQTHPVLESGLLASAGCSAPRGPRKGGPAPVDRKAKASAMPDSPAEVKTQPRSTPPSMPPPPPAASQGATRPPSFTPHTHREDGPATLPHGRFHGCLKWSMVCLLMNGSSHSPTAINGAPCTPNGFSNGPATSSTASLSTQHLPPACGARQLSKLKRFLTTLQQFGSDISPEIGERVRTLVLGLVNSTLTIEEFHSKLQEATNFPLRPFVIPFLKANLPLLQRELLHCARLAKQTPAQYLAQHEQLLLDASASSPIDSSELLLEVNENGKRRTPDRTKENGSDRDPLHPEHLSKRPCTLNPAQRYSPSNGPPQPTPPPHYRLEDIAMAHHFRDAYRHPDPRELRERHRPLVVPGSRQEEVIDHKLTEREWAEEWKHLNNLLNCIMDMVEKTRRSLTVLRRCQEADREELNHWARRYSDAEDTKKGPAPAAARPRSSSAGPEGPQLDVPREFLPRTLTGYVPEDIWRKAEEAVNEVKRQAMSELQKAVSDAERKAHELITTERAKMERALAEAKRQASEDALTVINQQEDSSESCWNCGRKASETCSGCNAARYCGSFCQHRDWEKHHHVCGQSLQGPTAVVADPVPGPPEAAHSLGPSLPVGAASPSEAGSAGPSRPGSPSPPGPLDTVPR
UniProt Q8N7R7: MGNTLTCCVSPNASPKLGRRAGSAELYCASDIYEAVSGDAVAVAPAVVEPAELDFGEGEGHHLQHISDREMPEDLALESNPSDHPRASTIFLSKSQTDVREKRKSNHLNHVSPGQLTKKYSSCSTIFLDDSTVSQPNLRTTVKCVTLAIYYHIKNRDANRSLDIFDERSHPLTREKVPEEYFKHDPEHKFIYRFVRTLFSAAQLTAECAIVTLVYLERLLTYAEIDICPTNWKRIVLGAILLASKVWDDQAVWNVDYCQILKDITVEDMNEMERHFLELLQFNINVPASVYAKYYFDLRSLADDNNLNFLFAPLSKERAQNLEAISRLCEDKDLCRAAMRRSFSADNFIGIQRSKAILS
UniProt O95067, whole entry, looked up: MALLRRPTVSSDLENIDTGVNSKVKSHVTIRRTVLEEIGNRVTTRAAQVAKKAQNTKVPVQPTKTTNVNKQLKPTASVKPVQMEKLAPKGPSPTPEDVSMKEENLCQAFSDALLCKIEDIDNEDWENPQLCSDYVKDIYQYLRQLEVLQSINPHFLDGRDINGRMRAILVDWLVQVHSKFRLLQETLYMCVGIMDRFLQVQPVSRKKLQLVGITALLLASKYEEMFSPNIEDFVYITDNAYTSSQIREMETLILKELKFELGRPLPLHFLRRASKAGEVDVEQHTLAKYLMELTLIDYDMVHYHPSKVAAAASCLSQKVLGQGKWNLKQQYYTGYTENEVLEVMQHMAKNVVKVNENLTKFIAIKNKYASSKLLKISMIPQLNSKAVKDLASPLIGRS
UniProt Q567U6, whole entry, looked up: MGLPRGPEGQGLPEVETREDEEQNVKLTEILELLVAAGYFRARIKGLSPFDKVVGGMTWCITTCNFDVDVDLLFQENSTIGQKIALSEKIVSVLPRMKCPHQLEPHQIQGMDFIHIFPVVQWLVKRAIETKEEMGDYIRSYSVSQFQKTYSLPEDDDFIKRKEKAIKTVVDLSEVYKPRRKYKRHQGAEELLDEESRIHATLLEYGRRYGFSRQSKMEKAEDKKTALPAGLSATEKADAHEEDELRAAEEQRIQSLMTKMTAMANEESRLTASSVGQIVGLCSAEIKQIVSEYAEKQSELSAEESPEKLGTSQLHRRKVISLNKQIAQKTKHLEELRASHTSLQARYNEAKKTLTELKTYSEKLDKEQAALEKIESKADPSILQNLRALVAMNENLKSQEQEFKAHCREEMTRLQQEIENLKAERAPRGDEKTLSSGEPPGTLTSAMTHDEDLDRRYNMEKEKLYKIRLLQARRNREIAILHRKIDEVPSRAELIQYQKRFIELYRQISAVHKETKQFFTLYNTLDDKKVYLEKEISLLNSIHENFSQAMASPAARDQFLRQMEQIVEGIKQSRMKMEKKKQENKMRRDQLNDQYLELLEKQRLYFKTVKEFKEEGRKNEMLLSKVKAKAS
UniProt Q9HC52: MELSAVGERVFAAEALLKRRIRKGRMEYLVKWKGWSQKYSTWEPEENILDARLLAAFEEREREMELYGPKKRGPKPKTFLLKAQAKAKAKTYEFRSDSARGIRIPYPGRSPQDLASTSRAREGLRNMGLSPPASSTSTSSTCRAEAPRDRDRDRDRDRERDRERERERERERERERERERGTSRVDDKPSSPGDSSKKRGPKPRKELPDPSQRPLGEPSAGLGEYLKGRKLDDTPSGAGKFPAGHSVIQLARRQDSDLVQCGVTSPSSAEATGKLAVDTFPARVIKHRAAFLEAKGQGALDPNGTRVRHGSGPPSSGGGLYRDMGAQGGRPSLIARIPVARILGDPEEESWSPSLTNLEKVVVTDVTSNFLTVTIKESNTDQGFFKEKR
UniProt Q8N9Z2: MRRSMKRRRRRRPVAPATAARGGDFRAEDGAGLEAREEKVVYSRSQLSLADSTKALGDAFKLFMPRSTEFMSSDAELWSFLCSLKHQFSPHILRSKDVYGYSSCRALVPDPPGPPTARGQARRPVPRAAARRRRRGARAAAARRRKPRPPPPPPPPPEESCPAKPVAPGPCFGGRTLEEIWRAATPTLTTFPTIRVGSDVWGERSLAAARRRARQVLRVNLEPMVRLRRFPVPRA
UniProt P78371: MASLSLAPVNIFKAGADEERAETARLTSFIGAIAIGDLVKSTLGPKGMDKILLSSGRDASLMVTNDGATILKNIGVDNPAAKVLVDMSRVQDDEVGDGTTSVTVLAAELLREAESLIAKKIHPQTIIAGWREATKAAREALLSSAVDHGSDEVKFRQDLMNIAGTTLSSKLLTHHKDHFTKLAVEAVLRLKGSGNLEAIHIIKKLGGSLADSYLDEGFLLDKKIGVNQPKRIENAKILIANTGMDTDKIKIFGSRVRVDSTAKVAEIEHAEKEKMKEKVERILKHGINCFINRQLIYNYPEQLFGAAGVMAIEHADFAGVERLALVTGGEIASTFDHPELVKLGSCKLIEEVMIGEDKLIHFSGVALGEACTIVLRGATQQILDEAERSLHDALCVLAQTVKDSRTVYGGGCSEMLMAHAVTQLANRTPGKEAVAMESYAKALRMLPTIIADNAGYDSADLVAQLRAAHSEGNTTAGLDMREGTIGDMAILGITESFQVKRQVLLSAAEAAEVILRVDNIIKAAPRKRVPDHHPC
UniProt Q96BQ5: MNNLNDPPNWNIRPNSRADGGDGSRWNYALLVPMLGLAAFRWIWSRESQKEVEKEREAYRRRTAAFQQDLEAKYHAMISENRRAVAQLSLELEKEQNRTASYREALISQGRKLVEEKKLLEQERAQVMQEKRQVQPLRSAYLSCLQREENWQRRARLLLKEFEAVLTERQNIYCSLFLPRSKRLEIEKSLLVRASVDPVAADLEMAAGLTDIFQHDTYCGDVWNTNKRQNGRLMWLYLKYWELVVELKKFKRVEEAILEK
UniProt P60953, whole entry, looked up: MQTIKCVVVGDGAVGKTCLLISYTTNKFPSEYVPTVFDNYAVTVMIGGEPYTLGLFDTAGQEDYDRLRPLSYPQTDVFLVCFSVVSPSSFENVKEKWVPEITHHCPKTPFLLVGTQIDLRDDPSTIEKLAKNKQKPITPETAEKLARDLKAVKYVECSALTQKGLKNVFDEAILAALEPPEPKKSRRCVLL

Target | log2 fold change
CCDC97 (UniProt Q96F63) | inactive: -0.134
CARS isoform 3 (UniProt P49589) | inactive: -0.041
CCDC85B (UniProt Q15834) | inactive: 0.038
CAT (UniProt P04040) | inactive: -0.019
CC2D1B isoform 2 (UniProt Q5T0F9) | inactive: 0.004
CDC16 (UniProt Q13042) | inactive: -0.011
CCDC88A (UniProt Q3V6T2) | inactive: -0.067
CARS2 (UniProt Q9HA77) | inactive: 0.055
CDC37 (UniProt K7EL68) | inactive: -0.023
CCT5 (UniProt P48643) | inactive: -0.08
CCDC28A (UniProt Q8IWP9) | inactive: 0
CDC25A (UniProt P30304) | inactive: -0.041
CCDC25 (UniProt Q86WR0) | inactive: -0.039
CCDC86 (UniProt Q9H6F5) | inactive: -0.05
CASC3 (UniProt O15234) | active: 0.485
CBFA2T3 (UniProt O75081) | inactive: -0.062
CCNYL1 (UniProt Q8N7R7) | inactive: -0.087
CARNMT1 (UniProt Q8N4J0) | inactive: 0.025
CCNB2 (UniProt O95067) | inactive: 0.027
CD59 isoform 2 (UniProt P13987) | inactive: 0.061
CCDC93 (UniProt Q567U6) | inactive: 0.059
CBX8 (UniProt Q9HC52) | inactive: 0.052
CD99 (UniProt P14209) | inactive: 0.066
CCS (UniProt O14618) | inactive: -0.019
CCDC71L isoform 2 (UniProt Q8N9Z2) | inactive: -0.252
CCT2 (UniProt P78371) | inactive: -0.063
CBFB (UniProt Q13951) | inactive: -0.129
CCDC127 (UniProt Q96BQ5) | inactive: 0.022
CDC42 isoform 1 (UniProt P60953) | inactive: -0.023

Reformatted: entries from further up

| Target | log2 fold change |
| --- | --- |
| CDC16 (UniProt Q13042) | inactive: -0.011 |
| CCT5 (UniProt P48643) | inactive: -0.08 |

From the supplement of paper PMC10849652
